# Some of the results follow. Further columns of the screen follow, without active or inactive calls. Compounds called inactive in the main read-out are mostly missing here. Words in brackets tell the shape of the fitted curve; partial curves, single points and poor fits give uncertain potencies.
# Assay: qHTS Assay for Lipid Storage Modulators in Drosophila S3 Cells;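 for cell number change: cells counted by Cell Tracker Red CMTPX staining in the red channel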
# Conditions: BODIPY lipid droplet fluorescence, 18-24 h; for cell number change: measured here: cell count max response, cells fed with added oleic acid
# In short: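 Laser-scanning cytometry quantifies lipid droplet accumulation (500–530 nm total intensity; droplet/cell object ratio) in oleic acid-fed (400 uM added) Drosophila S3 cells treated with a concentration series. 20 uM Triacsin C defined 100% inhibition.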
# [1] = measured here: cell number channel AC50, cells fed with added oleic acid
# [2] = measured here: lipid fluorescence (Fed channel) AC50, cells fed with added oleic acid
SMILES,cell number change [%],AC50 [1],AC50 [2]
Cc1noc(C)c1S(=O)(=O)N1CCC(C(=O)NCCc2ccc(S(N)(=O)=O)cc2)CC1,-46.5,"10.3 µM [falling, partial curve]","23.1 µM [falling, partial curve]"
O=[N+]([O-])c1cccc(-c2nc(-c3ccccn3)no2)c1,5.44,,"14.6 µM [rising, single point]"
CCCn1c2ccc(F)cc2c2nnc(NN)nc21,98.1,,"20.6 µM [rising, partial curve]"
CCn1ncc([N+](=O)[O-])c1C(=O)Nc1cc(C)on1,73.8,"20.6 µM [rising, single point]",
CC(=O)c1c(C)c2c(n1CCN(C)C)CCCC2,42.9,"29.1 µM [rising, single point]","0.651 µM [falling, single point]"
O=C(/C=C/c1ccc(Cl)c(C(F)(F)F)c1)N1CCN(c2ccccn2)CC1,6.25,,"0.731 µM [rising, full curve]"
O=C(CCc1nc2ccccc2[nH]1)Nc1ccccc1,11,,"4.11 µM [rising, single point]"
CCCCCCCCCCCCCCCC[n+]1cccc2ccccc21,-65.2,"2.59 µM [falling, full curve]","1.3 µM [falling, full curve]"
CC(=O)c1ccc2oc3ccccc3c(=O)c2c1,7.19,,"29.1 µM [falling, single point]"
CC(C)Oc1snc(Cl)c1C(N)=O,-11.4,"0.00461 µM [falling, full curve, poor fit]","29.1 µM [falling, partial curve]"
CC1CN(C(c2ccco2)c2sc3ncnn3c2O)CC(C)O1 (stereo unspecified),10.9,,
O=C(/C=C/c1ccc(Cl)cc1Cl)Nc1ccncc1,-33.2,"0.103 µM [rising, full curve, poor fit]","3.66 µM [rising, single point]"
COc1ccc(C)cc1NC(=O)CSc1nnc(-c2cc(C)[nH]n2)n1N,11.3,,"29.1 µM [rising, single point]"
CS(=O)(=O)N(CC(=O)Nc1ccc(S(=O)(=O)N2CCOCC2)cc1)c1cccc(F)c1,-0.119,,"1.64 µM [falling, partial curve, poor fit]"
O=C(c1ccc(Br)o1)N1CCN(Cc2ccc3c(c2)OCO3)CC1,-13.8,,"4.11 µM [rising, single point]"
COc1ccc(-c2oc3ncn(Cc4ccco4)c(=N)c3c2-c2ccc(OC)cc2)cc1,2.05,,
O=C(C1CC1)N1N=C2CCCCC2C1(O)C(F)(F)F (stereo unspecified),16.4,"0.0058 µM [rising, full curve, poor fit]",
NC(=S)NN=C1c2cc(S(=O)(=O)N3CCOCC3)ccc2-c2ccc(S(=O)(=O)N3CCOCC3)cc21,-58.8,"2.59 µM [falling, partial curve]","4.61 µM [falling, full curve]"
Cc1ccc(N2C(=O)/C(=C/c3cccnc3)SC2=S)cc1,-3.18,,"29.1 µM [rising, single point]"

SMILES,cell number change [%],AC50 [1],AC50 [2]
CN(c1cccc(Cl)c1)S(=O)(=O)c1cccc(C(=O)Nc2ccc3c(c2)CCC3)c1,-9.78,,
O=C(c1cc(-c2ccccc2Cl)on1)N1CCCC1,14.5,,
O=C(COC(=O)/C=C/c1cccc(F)c1)Nc1ccc(Cl)cn1,21.7,,"0.00517 µM [rising, full curve, poor fit]"
Cc1cc(C)n(CCO)c(=O)n1,-22.9,"0.116 µM [falling, full curve, poor fit]","2.06 µM [falling, full curve, poor fit]"
COC(=O)c1cc(N2CCN(C)CC2)nc2ccccc12,49.9,"0.92 µM [rising, full curve, poor fit]","29.1 µM [rising, partial curve, poor fit]"
Cc1ccc(C(=O)C[n+]2ccc(-c3nnc4n3CCC4)cc2)cc1,7.22,,"18.4 µM [rising, single point]"
COc1cccc(OCCNc2cc(N3CCOCC3)ccc2[N+](=O)[O-])c1,11.6,"3.66 µM [rising, single point]","8.2 µM [rising, partial curve]"
CC1CCCCC12NC(=O)N(CC(=O)OCC(=O)NCc1ccc(F)cc1)C2=O (stereo unspecified),2.14,,"1.84 µM [rising, single point]"
Cn1cccc1C(=O)NC(=O)COC(=O)CC12CC3CC(CC(C3)C1)C2,-8.52,"0.651 µM [falling, full curve, poor fit]",
COc1ccc(-c2oc3ccc(-c4cc(OC)c(OC)c(OC)c4)cc3c2-c2ccc(OC)nc2)cc1,34.3,"16.4 µM [rising, single point]","9.2 µM [rising, partial curve]"
COc1ccc(NCc2n[nH]c(=O)c3ccccc23)cc1,89.2,"14.6 µM [rising, partial curve]","16.4 µM [rising, partial curve]"
CC1=C(C(=O)Nc2ccc(C)cc2)C(c2ccc(C)o2)C2=C(CC(C)(C)CC2=O)N1 (stereo unspecified),,,"6.51 µM [falling, single point]"
CCCNC(=O)c1cc(SC)ccc1Cl,-7.64,,
CC1CCCC(NC(=O)CN2CCN(S(=O)(=O)c3cccs3)CC2)C1C (stereo unspecified),7.32,,"0.651 µM [rising, full curve, poor fit]"
CCN(CC)S(=O)(=O)c1ccc(NS(=O)(=O)c2ccc3oc(=O)[nH]c3c2)cc1,18.4,,
Cc1ccccc1Nc1c([N+](=O)[O-])ccc2nonc12,2.78,,"29.1 µM [rising, single point]"
COc1ccc(C)cc1NC(=O)C1CCCN(S(=O)(=O)c2ccc3c(c2)CCCN3C(C)=O)C1 (stereo unspecified),3.67,,"0.164 µM [falling, full curve, poor fit]"
Cc1nn2c(N3CCN(C)CC3)cc(C(C)(C)C)nc2c1-c1ccccc1,-32.4,"29.1 µM [falling, single point]","18.4 µM [falling, single point]"
CC1CCCN(C(=O)C2CC(=O)N(c3ccc(Cl)cc3)C2)C1 (stereo unspecified),1.8,,"6.51 µM [falling, single point]"

SMILES,cell number change [%],AC50 [1],AC50 [2]
CC(=O)c1ccc2c(c1)OCCOCCOCCOCCO2,-43.3,"0.651 µM [falling, full curve]",
O=C(Nc1cccc(-c2nc3cccnc3s2)c1)C1c2ccccc2Oc2ccccc21,-39.7,"4.11 µM [falling, full curve]","4.11 µM [falling, full curve]"
CCOc1ccc(OCC(=O)OCC(=O)Nc2ccc3[nH]c(=O)[nH]c3c2)cc1,-15.6,,"25.9 µM [falling, partial curve, poor fit]"
COc1ccccc1NS(=O)(=O)c1ccc(Br)s1,-14.6,"1.84 µM [falling, partial curve]",
Cc1nn(CC(=O)NCC(C)c2ccccc2)c(=O)c2cc(-c3ccccc3)nn12 (stereo unspecified),-4.72,,"1.64 µM [rising, full curve]"
Cc1cc(CNC(=O)c2ccc3oc(C(C)C)nc3c2)nn1C,4.28,,"7.31 µM [rising, single point]"
CC(C)[C@H](NC(=O)c1ccccc1)C(=O)OCc1nc2scc(-c3ccccc3)c2c(=O)[nH]1,33.8,"11.6 µM [rising, partial curve]","16.4 µM [rising, single point]"
O=C1c2ccccc2NC(c2ccc(O)cc2)N1Cc1ccco1 (stereo unspecified),55.3,"8.2 µM [rising, partial curve]","6.51 µM [rising, partial curve, poor fit]"
O=C(c1cc2nc(-c3ccco3)cc(C(F)(F)F)n2n1)N1CCc2ccccc2C1,21.7,"0.731 µM [rising, full curve]","0.731 µM [rising, full curve]"
Cc1cccc(OCC(=O)Nc2ccc(N3CCN(C(=O)c4ccccc4)CC3)cc2)c1C,15.5,,"6.51 µM [rising, single point]"
COC(=O)c1cc(C(=O)Nc2nc3ccccc3[nH]2)cc([N+](=O)[O-])c1,0.833,,
CCCCCNc1nc(-c2ccccc2)cs1,51.4,"6.51 µM [rising, partial curve]","4.61 µM [rising, single point]"
Cc1ccc(C(=O)C[n+]2ccc(Cc3ccccc3)cc2)cc1,-14.3,,
CCOC(=O)c1cc2sccc2n1CCCN1C(=O)c2ccccc2C1=O,-23.8,,
COc1cc(OC)cc(C(=O)NC(C(=O)N2CCc3ccccc3C2)C(C)C)c1 (stereo unspecified),5.65,,
CS(=O)(=O)N1N=C(c2ccc(Br)cc2)CC1c1cccs1 (stereo unspecified),58.4,"14.6 µM [rising, partial curve]",
CC(C)CC1Nc2ncnc(N3CCN(c4ccccn4)CC3)c2N(Cc2ccc(Br)cc2)C1=O (stereo unspecified),30.2,"14.6 µM [rising, single point]","16.4 µM [rising, partial curve]"
Cc1nc2ccc(S(=O)(=O)NC(C(=O)Nc3nc4ccc(Cl)cc4s3)C(C)C)cc2s1 (stereo unspecified),-38.6,"32.6 µM [falling, partial curve, poor fit]",
CC(=O)Nc1ccc(NC(=S)NC(=O)c2ccc([N+](=O)[O-])cc2)cc1,9.63,,"23.1 µM [rising, single point]"

# As a working copy, part of the list above:
SMILES,cell number change [%],AC50 [1],AC50 [2]
COc1cc(OC)cc(C(=O)NC(C(=O)N2CCc3ccccc3C2)C(C)C)c1 (stereo unspecified),5.65,,
CS(=O)(=O)N1N=C(c2ccc(Br)cc2)CC1c1cccs1 (stereo unspecified),58.4,"14.6 µM [rising, partial curve]",
CC(C)CC1Nc2ncnc(N3CCN(c4ccccn4)CC3)c2N(Cc2ccc(Br)cc2)C1=O (stereo unspecified),30.2,"14.6 µM [rising, single point]","16.4 µM [rising, partial curve]"

# Reference: PubChem BioAssay AID2685 (National Center for Advancing Translational Sciences (NCATS), 2010)
